Test results: US20070020706A1 (UNIVERSITY HOSPITALS OF CLEVELAND, published 2007)
These are yes or no findings as the source states them, for the method shown. In cells and extracts the contact can be indirect. Some results given as binding are weak or reduced against the parent protein; the word gives no strength. For some assays here: Tags and fused reporters may be left off the sequences shown. One block for each molecule: values may come before it.

The chains behind the UniProt entries cited, without tags or fusion partners.
UniProt P35626: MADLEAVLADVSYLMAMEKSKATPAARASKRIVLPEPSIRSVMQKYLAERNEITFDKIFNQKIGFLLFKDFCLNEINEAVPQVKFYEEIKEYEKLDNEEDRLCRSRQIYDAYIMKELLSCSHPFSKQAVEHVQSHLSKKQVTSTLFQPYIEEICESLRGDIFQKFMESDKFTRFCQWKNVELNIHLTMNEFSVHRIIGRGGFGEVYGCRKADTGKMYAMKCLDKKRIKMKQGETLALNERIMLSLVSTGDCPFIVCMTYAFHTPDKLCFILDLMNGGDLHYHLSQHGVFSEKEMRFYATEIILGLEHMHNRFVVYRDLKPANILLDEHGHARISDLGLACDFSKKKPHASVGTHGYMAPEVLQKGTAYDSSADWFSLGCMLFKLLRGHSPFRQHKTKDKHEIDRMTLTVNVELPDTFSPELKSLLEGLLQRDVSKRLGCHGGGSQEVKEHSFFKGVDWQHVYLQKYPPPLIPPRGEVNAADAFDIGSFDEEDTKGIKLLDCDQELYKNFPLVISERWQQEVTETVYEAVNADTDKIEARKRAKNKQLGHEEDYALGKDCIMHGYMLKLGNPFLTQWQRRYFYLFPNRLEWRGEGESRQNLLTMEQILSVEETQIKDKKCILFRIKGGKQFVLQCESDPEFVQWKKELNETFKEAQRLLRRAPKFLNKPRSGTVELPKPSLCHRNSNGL
UniProt P32121: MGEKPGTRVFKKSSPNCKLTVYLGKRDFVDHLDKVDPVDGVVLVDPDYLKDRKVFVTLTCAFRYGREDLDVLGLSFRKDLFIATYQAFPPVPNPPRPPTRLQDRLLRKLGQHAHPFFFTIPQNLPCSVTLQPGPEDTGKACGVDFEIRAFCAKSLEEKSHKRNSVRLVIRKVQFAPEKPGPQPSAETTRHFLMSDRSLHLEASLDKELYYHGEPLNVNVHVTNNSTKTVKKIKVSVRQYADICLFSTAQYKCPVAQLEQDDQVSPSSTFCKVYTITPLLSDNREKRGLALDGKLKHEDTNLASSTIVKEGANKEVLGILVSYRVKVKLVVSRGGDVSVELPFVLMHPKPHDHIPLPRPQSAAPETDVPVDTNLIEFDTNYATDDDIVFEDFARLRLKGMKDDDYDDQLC

B2: full-length human P2X7 receptor (receptor)
chain: MPACCSCSDVFQYETNKVTRIQSMNYGTIKWFFHVIIFSYVCFALVSDKLYQRKEPVISSVHTKVKGIAEVKEEIVENGVKKLVHSVFDTADYTFPLQGNSFFVMTNFLKTEGQEQRLCPEYPTRRTLCSSDRGCKKGWMDPQSKGIQTGRCVVHEGNQKTCEVSAWCPIEAVEEAPRPALLNSAENFTVLIKNNIDFPGHNYTTRNILPGLNITCTFHKTQNPQCPIFRLGDIFRETGDNFSDVAIQGGIMGIEIYWDCNLDRWFHHCHPKYSFRRLDDKTTNVSLYPGYNFRYAKYYKENNVEKRTLIKVFGIRFDILVFGTGGKFDIIQLVVYIGSTLSYFGLAAVFIDFLIDTYSSNCCRSHIYPWCKCCQPCVVNEYYYRKKCESIVEPKPTLKYVSFVDESHIRMVNQQLLGRSLQDVKGQEVPRPAMDFTDLSRLPLALHDTPPIPGQPEEIQLLRKEATPRSRDSPVWCQCGSCLPSQLPESHRCLEELCCRKKPGACITTSELFRKLVLSRHVLQFLLLYQEPLLALDVDSTNSRLRHCAYRCYATWRFGSQDMADFAILPSCCRWRIRKEFPKSEGQYSGFKSPY
notes: Expressed from cDNA in HEK-293 cells or endogenous in human cells and tissues (CaSki, HeLa, cervical tissue); Mostly assayed in cell extracts on immunoblots, where it runs as 65, 75 and 85 kDa forms; also called P2X7-RFL; P2X7-WT

How the values were obtained:
[1] = molecular target: B2; assay: co-immunoprecipitation from ATP-treated CaSki lysates
[2] = molecular target: T1, P2X7(Myc), full-length P2X7 with an N-terminal myc tag (human) (UniProt Q99572); assay: co-immunoprecipitation from ATP-treated HEK-293-c-Myc-hP2X7-R lysates
T1 sequence: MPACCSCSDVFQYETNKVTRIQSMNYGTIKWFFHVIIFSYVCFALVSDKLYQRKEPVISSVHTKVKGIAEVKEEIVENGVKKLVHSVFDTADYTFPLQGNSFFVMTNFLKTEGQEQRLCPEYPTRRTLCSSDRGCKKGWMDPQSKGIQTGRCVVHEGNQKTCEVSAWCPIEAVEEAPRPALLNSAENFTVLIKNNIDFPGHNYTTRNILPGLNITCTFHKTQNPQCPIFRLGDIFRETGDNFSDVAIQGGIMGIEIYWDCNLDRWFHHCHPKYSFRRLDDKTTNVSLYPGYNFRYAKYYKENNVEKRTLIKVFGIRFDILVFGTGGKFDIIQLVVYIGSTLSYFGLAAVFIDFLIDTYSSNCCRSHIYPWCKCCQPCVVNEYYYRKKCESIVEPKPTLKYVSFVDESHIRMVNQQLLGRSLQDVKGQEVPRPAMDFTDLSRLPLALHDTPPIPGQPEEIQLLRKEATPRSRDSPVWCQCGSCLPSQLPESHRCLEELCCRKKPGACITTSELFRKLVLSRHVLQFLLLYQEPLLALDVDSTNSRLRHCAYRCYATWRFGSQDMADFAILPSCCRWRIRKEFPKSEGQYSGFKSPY

[3] = molecular target: B2; assay: co-immunoprecipitation from ATP-treated CaSki lysates: IP anti-P2X7, blot anti-GRK-3
[4] = molecular target: B2; assay: co-immunoprecipitation from ATP-treated CaSki lysates: IP anti-P2X7, blot anti-β-arrestin-2
[5] = molecular target: T2, N-HA-P2X7-WT, full-length P2X7 with an N-terminal HA tag (human) (UniProt Q99572); assay: co-immunoprecipitation in co-transfected HEK293 cells
T2 sequence: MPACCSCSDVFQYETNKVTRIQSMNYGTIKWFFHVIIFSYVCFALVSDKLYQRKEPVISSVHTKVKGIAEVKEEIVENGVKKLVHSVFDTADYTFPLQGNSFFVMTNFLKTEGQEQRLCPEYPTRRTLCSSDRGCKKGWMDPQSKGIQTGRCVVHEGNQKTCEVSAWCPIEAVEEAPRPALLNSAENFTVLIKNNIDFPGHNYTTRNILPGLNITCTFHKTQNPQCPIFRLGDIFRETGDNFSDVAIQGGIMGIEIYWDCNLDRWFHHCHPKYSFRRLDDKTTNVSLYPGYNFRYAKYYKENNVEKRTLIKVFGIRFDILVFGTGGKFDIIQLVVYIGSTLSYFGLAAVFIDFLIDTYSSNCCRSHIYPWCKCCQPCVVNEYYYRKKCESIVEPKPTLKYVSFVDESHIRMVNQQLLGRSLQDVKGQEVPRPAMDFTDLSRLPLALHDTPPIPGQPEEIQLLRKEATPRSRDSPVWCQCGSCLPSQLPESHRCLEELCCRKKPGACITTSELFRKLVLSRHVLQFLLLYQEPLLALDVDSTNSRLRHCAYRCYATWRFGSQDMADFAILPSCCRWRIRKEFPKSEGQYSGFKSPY

[6] = molecular target: T3, N-HA-P2X7-j, truncated P2X7-j with an N-terminal HA tag (human) (UniProt Q99572); assay: as above
T3 sequence: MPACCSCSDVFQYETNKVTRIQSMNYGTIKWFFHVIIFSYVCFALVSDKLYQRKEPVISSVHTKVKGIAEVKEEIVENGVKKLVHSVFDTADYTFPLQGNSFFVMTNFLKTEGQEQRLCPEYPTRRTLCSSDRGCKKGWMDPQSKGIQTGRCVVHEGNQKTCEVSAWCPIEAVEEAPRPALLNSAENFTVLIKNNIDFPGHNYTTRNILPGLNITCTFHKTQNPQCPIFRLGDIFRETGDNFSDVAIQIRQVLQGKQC

[7] = molecular target: T2, N-HA-P2X7-WT, full-length P2X7 with an N-terminal HA tag (human); assay: co-immunoprecipitation in MDCK cells: IP anti-Myc, blot anti-HA

- binding [1]: binds
- binding [2]: binds
- binding [3]: binds
Molecule: G-protein coupled receptor kinase 3 (from UniProt P35626 1-688) (enzyme)

- binding [2]: binds
- binding [4]: binds
Molecule: β-arrestin-2 (from UniProt P32121 1-409)

Continued, molecule first:

B1: truncated P2X7-j receptor protein (receptor)
chain: MPACCSCSDVFQYETNKVTRIQSMNYGTIKWFFHVIIFSYVCFALVSDKLYQRKEPVISSVHTKVKGIAEVKEEIVENGVKKLVHSVFDTADYTFPLQGNSFFVMTNFLKTEGQEQRLCPEYPTRRTLCSSDRGCKKGWMDPQSKGIQTGRCVVHEGNQKTCEVSAWCPIEAVEEAPRPALLNSAENFTVLIKNNIDFPGHNYTTRNILPGLNITCTFHKTQNPQCPIFRLGDIFRETGDNFSDVAIQIRQVLQGKQC
notes: Untagged P2X7-j, expressed in HEK-293 cells or endogenous in human cancer cell lines; Runs as 42-45 kDa bands; also called P2X7-RTR
- binding [5]: binds
- binding [6]: binds

Molecule: B2
- binding [7]: binds
